Data reported in the supplement of paper PMC8728848.
The list shows a part of the results.

How the values were obtained:
Assay in all cases: glycan array binding signal (z-score within array); higher = stronger binding
Conditions in all cases: glycan notation: IUPAC condensed, linker removed
Gal(b1-2)Gal = target: Gal(b1-2)Gal
Summary of the method: (§1)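 Glycan array data were curated from 3228 arrays in the Consortium for Functional Glycomics database and kept only where the protein sequence was available. Glycan names were converted to IUPAC-condensed notation, and columns mapping to the same glycan were averaged. The binding signal is a within-array Z-score, averaged across arrays of the same protein sequence at different concentrations or buffers and across linkers. Negative Z-scores can be read as non-binding.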

Gal(b1-3)Gal = target: Gal(b1-3)Gal
Summary of the method: as §1

Gal(b1-3)Gal(b1-4)GlcNAc = target: Gal(b1-3)Gal(b1-4)GlcNAc
Summary of the method: as §1

Gal(b1-3)GalNAc = target: Gal(b1-3)GalNAc
Summary of the method: as §1

[1] = target: Gal(b1-3)GalNAc(a1-3)[Fuc(a1-2)]Gal(b1-4)Glc
Summary of the method: as §1

[2] = target: Gal(b1-3)GalNAc(a1-3)[Fuc(a1-2)]Gal(b1-4)GlcNAc
Summary of the method: as §1

Gal(b1-3)GalNAc(b1-3)Gal = target: Gal(b1-3)GalNAc(b1-3)Gal
Summary of the method: as §1

[3] = target: Gal(b1-3)GalNAc(b1-3)Gal(a1-4)Gal(b1-4)Glc
Summary of the method: as §1

[4] = target: Gal(b1-3)GalNAc(b1-4)Gal(b1-4)Glc
Summary of the method: as §1

[5] = target: Gal(b1-3)GalNAc(b1-4)[Neu5Ac(a2-3)]Gal(b1-4)Glc
Summary of the method: as §1

Gal(b1-3)GlcNAc = target: Gal(b1-3)GlcNAc
Summary of the method: as §1

[6] = target: Gal(b1-3)GlcNAc(a1-3)Gal(b1-4)GlcNAc
Summary of the method: as §1

[7] = target: Gal(b1-3)GlcNAc(a1-6)Gal(b1-4)GlcNAc
Summary of the method: as §1

Gal(b1-3)GlcNAc(b1-2)Man = target: Gal(b1-3)GlcNAc(b1-2)Man
Summary of the method: as §1

[8] = target: Gal(b1-3)GlcNAc(b1-2)Man(a1-3)[Gal(b1-3)GlcNAc(b1-2)Man(a1-6)]Man(b1-4)GlcNAc(b1-4)GlcNAc
Summary of the method: as §1

[9] = target: Gal(b1-3)GlcNAc(b1-2)Man(a1-3)[Gal(b1-3)GlcNAc(b1-2)Man(a1-6)]Man(b1-4)GlcNAc(b1-4)[Fuc(a1-6)]GlcNAc
Summary of the method: as §1

[10] = target: Gal(b1-3)GlcNAc(b1-2)Man(a1-3)[GlcNAc(b1-4)][Gal(b1-3)GlcNAc(b1-2)Man(a1-6)]Man(b1-4)GlcNAc(b1-4)GlcNAc
Summary of the method: as §1

[11] = target: Gal(b1-3)GlcNAc(b1-2)[Gal(b1-3)GlcNAc(b1-6)]Man(a1-6)[Gal(b1-3)GlcNAc(b1-2)Man(a1-3)]Man(b1-4)GlcNAc(b1-4)GlcNAc
Summary of the method: as §1

[12] = target: Gal(b1-3)GlcNAc(b1-3)Gal(b1-3)GlcNAc
Summary of the method: as §1

[13] = target: Gal(b1-3)GlcNAc(b1-3)Gal(b1-4)Glc
Summary of the method: as §1

[14] = target: Gal(b1-3)GlcNAc(b1-3)Gal(b1-4)GlcNAc
Summary of the method: as §1

[15] = target: Gal(b1-3)GlcNAc(b1-3)Gal(b1-4)GlcNAc(b1-2)Man(a1-3)[Gal(b1-3)GlcNAc(b1-3)Gal(b1-4)GlcNAc(b1-2)Man(a1-6)]Man(b1-4)GlcNAc(b1-4)GlcNAc
Summary of the method: as §1

[16] = target: Gal(b1-3)GlcNAc(b1-3)Gal(b1-4)GlcNAc(b1-2)[Gal(b1-3)GlcNAc(b1-3)Gal(b1-4)GlcNAc(b1-6)]Man(a1-6)[Gal(b1-3)GlcNAc(b1-3)Gal(b1-4)GlcNAc(b1-2)Man(a1-3)]Man(b1-4)GlcNAc(b1-4)[Fuc(a1-6)]GlcNAc
Summary of the method: as §1

[17] = target: Gal(b1-3)GlcNAc(b1-3)Gal(b1-4)GlcNAc(b1-3)Gal(b1-4)GlcNAc(b1-2)[Gal(b1-3)GlcNAc(b1-3)Gal(b1-4)GlcNAc(b1-3)Gal(b1-4)GlcNAc(b1-6)]Man(a1-6)[Gal(b1-3)GlcNAc(b1-3)Gal(b1-4)GlcNAc(b1-3)Gal(b1-4)GlcNAc(b1-2)Man(a1-3)]Man(b1-4)GlcNAc(b1-4)[Fuc(a1-6)]GlcNAc
Summary of the method: as §1

[18] = target: Gal(b1-3)GlcNAc(b1-3)Gal(b1-4)GlcNAc(b1-6)[Gal(b1-3)GlcNAc(b1-3)]Gal(b1-4)Glc
Summary of the method: as §1

[19] = target: Gal(b1-3)GlcNAc(b1-3)Gal(b1-4)[Fuc(a1-3)]GlcNAc
Summary of the method: as §1

[20] = target: Gal(b1-3)GlcNAc(b1-3)Gal(b1-4)[Fuc(a1-3)]GlcNAc(b1-6)[Gal(b1-3)GlcNAc(b1-3)]Gal(b1-4)Glc
Summary of the method: as §1

[21] = target: Gal(b1-3)GlcNAc(b1-3)GalNAc
Summary of the method: as §1

[22] = target: Gal(b1-3)GlcNAc(b1-6)Gal(b1-4)GlcNAc
Summary of the method: as §1

[23] = target: Gal(b1-3)GlcNAc(b1-6)GalNAc
Summary of the method: as §1

[24] = target: Gal(b1-3)GlcNAc(b1-6)[Gal(b1-3)]GalNAc
Summary of the method: as §1

Gal(b1-3)GlcNAc6S = target: Gal(b1-3)GlcNAc6S
Summary of the method: as §1

[25] = target: Gal(b1-3)[Fuc(a1-4)]GlcNAc
Summary of the method: as §1

[26] = target: Gal(b1-3)[Fuc(a1-4)]GlcNAc(b1-2)Man
Summary of the method: as §1

[27] = target: Gal(b1-3)[Fuc(a1-4)]GlcNAc(b1-2)Man(a1-3)[Gal(b1-3)[Fuc(a1-4)]GlcNAc(b1-2)Man(a1-6)]Man(b1-4)GlcNAc(b1-4)[Fuc(a1-6)]GlcNAc
Summary of the method: as §1

[28] = target: Gal(b1-3)[Fuc(a1-4)]GlcNAc(b1-3)Gal(b1-3)[Fuc(a1-4)]GlcNAc
Summary of the method: as §1

[29] = target: Gal(b1-3)[Fuc(a1-4)]GlcNAc(b1-3)Gal(b1-4)[Fuc(a1-3)]GlcNAc
Summary of the method: as §1

B1: PX9961W-pdi-543-27-543 (Parabacteroides distasonis) (protein)
chain: EGNATTTSYFLNDQQAIDAIDGLYERFHQEGCYGRELFWEQGAACDIVWGRTRGYNSLATLAYTGDESPLRDVFSRMYSTMSRANWIIQELVKKEKGTTLTAVEKRSLGEAYFSRGWAHYLIAYRYGTDKQGVPFVRYEDFPDDYDNSIPPQQATVMDNYKLIIEDMDKAIAYLPIFESYDADNRGRAHQAAAVAFKAKTYAYWATWDATQWNNVIEMVNQLENNYNRDLAPTFAELFSSDLKDYWNAEYLWTIPSIGGALPGGTEFPGIILENKGWGKYNGWGQMKPSYDIYEEMAKDGKGNDRLVRSILEYNQEFPFFGETRKFWSTSDLEAGFMINKYMDAFKYSDPVGEGAVSANGDWPTVRVNFPIIRFAEMLLFRAEAYLMTGQADKATADINRIRLRSNLTPLTGTATMKDLYHERRCELAFEFTDHLFDLKRWNRSSNADIKTLADKELNAHPRIRRYEDRANPESAFTIIGYEDYTNKNAYQAHMMVFPYPSEEITKSNGQLKQNEGY
- glycan array binding signal (z-score) (Gal(b1-2)Gal): 0.17
- glycan array binding signal (z-score) (Gal(b1-3)Gal): -0.761
- glycan array binding signal (z-score) (Gal(b1-3)Gal(b1-4)GlcNAc): -0.037
- glycan array binding signal (z-score) (Gal(b1-3)GalNAc): -0.095
- glycan array binding signal (z-score) [1]: -0.556
- glycan array binding signal (z-score) [2]: 0.758
- glycan array binding signal (z-score) (Gal(b1-3)GalNAc(b1-3)Gal): -0.176
- glycan array binding signal (z-score) [3]: -0.883
- glycan array binding signal (z-score) [4]: -0.613
- glycan array binding signal (z-score) [5]: -0.106
- glycan array binding signal (z-score) (Gal(b1-3)GlcNAc): -0.478
- glycan array binding signal (z-score) [6]: -0.65
- glycan array binding signal (z-score) [7]: -0.321
- glycan array binding signal (z-score) (Gal(b1-3)GlcNAc(b1-2)Man): 0.063
- glycan array binding signal (z-score) [8]: 0.868
- glycan array binding signal (z-score) [9]: 0.67
- glycan array binding signal (z-score) [10]: 0.771
- glycan array binding signal (z-score) [11]: 0.012
- glycan array binding signal (z-score) [12]: -0.617
- glycan array binding signal (z-score) [13]: -0.994
- glycan array binding signal (z-score) [14]: -0.787
- glycan array binding signal (z-score) [15]: 0.778
- glycan array binding signal (z-score) [16]: 3.68
- glycan array binding signal (z-score) [17]: 1.82
- glycan array binding signal (z-score) [18]: 2.47
- glycan array binding signal (z-score) [19]: -0.843
- glycan array binding signal (z-score) [20]: -1.28
- glycan array binding signal (z-score) [21]: -1.05
- glycan array binding signal (z-score) [22]: -0.821
- glycan array binding signal (z-score) [23]: -0.697
- glycan array binding signal (z-score) [24]: 0.458
- glycan array binding signal (z-score) (Gal(b1-3)GlcNAc6S): -0.793
- glycan array binding signal (z-score) [25]: -0.015
- glycan array binding signal (z-score) [26]: 0.017
- glycan array binding signal (z-score) [27]: 0.073
- glycan array binding signal (z-score) [28]: -0.102
- glycan array binding signal (z-score) [29]: 0.282
